# Experimental data published in publication PMC3723252, “Trypanocidal Activity of Thioamide-Substituted Imidazoquinolinone: Electrochemical Properties and Biological Effects” (Evidence-based Complementary and Alternative Medicine : eCAM, 2013).
# How the values were obtained:
# [1] = tested on: Trypanosoma cruzi epimastigotes (Tulahuen strain); assay: Growth inhibition of epimastigotes (cell counting, 4 days); assay type: cell-based; conditions: for Epimastigotes SI: CC50 Vero cells / IC50 epimastigotes
# Method: (§1) Trypanosoma cruzi epimastigotes (Tulahuen strain) were grown as previously described. Bloodstream trypomastigotes were obtained from infected CF1 mice by cardiac puncture. Tulahuen strain expressing the β-galactosidase gene was kindly provided by Dr Buckner (University of Washington, USA).
# Cells growth was assessed by counting the number of cells per mL of culture using a Neubauer chamber and was expressed as cellular density (CD). The percentage of inhibition (%I) was calculated as %I = {1 − [(CD4t − CD0)/(CD4c − CD0)]} × 100, where the different CDs represent the cellular density of CD4t, treated parasites on day 4; CD0, parasites on day 0; and CD4c, untreated parasites (control) on day 4.
# (§2) The results presented are representative of three to four separate experiments, performed in duplicates or triplicates. All data are expressed as means ± standard errors of the mean (SEM). To calculate the IC50 values, the %I or %L values were plotted against the log of drug concentration (μM) and fitted with a straight line determined by a linear regression (Sigma Plot 10 software). The significance of differences was evaluated using Student' t test, taking a P < 0.05 as significant. Flow cytometry data were analyzed employing the WinMDI 2.9 software.
# [2] = tested on: amastigotes (Tulahuen strain expressing the β-galactosidase gene) in J774 cells; assay: Amastigote assay in infected J774 cells (β-galactosidase, CPRG); assay type: cell-based, Trypanosoma cruzi; conditions: CC50 Vero cells / IC50 amastigotes
# Method: as §1
# For analysis of amastigotes, J774 cells were infected with bloodstream trypomastigotes expressing the β-galactosidase gene at a parasite: cell ratio of 10 : 1. After 24 h, cell cultures were washed and each compound (2 to 100 μM) was added in fresh RPMI medium without phenol red (to avoid interference with absorbance readings at 570 nm). After 7 days, the assay was developed as described. The galactosidase activity was quantified using CPRG as substrate and measuring absorbance at 570 nm in a Microplate Reader (Bio-Rad Laboratories). Since the assayed compounds are coloured, blanks including uninfected cells with different doses of each compound were performed. The percentage of inhibition was calculated as %I = {1 − [(A it − A nit)/(A ic − A nic)]} × 100, where A represents the mean A 570 value recorded for A it, treated infected cells; A nit, treated noninfected cells; A ic, untreated infected cells; and A nic, untreated noninfected cells.
# as §2
SMILES,Epimastigotes SI [1],Amastigotes SI [2],times more active than Bnz on the epimastigote form ([1]; from IC50 values of Table 1) [times]
Cc1ccc(NC(=S)c2c3n(c(=O)c4ccccc24)CCN3)cc1 [Compound C3],>66.7,>66.7,–
"O=c1c2ccccc2c(C(=S)Nc2ccccc2)c2n1CCN2 [Compound C1, N-phenyl-5-oxo-1,2,3,5-tetrahydroimidazo[1,2-b]isoquinolin-10-carbothioamide]",>67.1,>57.5,3.5
"O=C(Cn1ccnc1[N+](=O)[O-])NCc1ccccc1 [Bnz, Benznidazole, reference compound]",15.1,–,–
"O=c1c2ccccc2c(C(=S)Nc2ccc(Cl)cc2)c2n1CCN2 [Compound C2, N-(4-chlorophenyl)-5-oxo-1,2,3,5-tetrahydroimidazo[1,2-b]isoquinolin-10-carbothioamide]",>18.0,>27.5,–
